Laboratory results: article PMC6207757
No constants are given. Whether binding was seen depends on the method and setting. In cells and extracts the contact can be indirect. Binding calls can cover weak binding; strength is not graded here.

Experiments:
[1] = biological target: T1, CEP97 (partner in the domain mapping of MPP9) (UniProt Q8IW35); experiment: pull-down + two-hybrid; domain mapping by pull-down with purified proteins in vitro and by yeast two-hybrid (AH109, quadruple selective medium); which method stands behind each panel of Supplementary Fig. 3f-n is not given
T1 sequence: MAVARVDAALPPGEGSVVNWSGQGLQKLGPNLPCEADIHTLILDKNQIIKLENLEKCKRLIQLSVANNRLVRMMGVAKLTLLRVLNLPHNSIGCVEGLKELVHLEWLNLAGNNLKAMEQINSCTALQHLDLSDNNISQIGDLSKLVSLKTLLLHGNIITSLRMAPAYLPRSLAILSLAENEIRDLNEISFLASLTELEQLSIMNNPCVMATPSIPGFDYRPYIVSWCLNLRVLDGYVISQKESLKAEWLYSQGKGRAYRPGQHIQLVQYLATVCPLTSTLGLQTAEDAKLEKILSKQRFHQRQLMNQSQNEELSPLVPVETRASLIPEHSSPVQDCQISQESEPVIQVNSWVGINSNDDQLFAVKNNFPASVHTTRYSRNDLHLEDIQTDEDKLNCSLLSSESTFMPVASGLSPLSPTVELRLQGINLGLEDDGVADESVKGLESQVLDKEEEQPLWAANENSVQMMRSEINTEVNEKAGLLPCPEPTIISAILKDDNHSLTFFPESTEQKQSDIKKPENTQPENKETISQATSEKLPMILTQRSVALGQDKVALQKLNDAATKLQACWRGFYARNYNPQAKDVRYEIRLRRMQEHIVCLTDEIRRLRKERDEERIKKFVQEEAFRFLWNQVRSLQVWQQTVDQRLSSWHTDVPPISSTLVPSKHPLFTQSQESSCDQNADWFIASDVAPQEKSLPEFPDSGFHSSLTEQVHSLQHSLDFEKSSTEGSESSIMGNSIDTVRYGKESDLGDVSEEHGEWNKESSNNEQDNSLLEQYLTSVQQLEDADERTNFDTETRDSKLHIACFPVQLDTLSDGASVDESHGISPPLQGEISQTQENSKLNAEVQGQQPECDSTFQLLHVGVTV

[2] = biological target: T2, KIF24 (partner in the domain mapping of MPP9) (UniProt Q5T7B8); experiment: as above
T2 sequence: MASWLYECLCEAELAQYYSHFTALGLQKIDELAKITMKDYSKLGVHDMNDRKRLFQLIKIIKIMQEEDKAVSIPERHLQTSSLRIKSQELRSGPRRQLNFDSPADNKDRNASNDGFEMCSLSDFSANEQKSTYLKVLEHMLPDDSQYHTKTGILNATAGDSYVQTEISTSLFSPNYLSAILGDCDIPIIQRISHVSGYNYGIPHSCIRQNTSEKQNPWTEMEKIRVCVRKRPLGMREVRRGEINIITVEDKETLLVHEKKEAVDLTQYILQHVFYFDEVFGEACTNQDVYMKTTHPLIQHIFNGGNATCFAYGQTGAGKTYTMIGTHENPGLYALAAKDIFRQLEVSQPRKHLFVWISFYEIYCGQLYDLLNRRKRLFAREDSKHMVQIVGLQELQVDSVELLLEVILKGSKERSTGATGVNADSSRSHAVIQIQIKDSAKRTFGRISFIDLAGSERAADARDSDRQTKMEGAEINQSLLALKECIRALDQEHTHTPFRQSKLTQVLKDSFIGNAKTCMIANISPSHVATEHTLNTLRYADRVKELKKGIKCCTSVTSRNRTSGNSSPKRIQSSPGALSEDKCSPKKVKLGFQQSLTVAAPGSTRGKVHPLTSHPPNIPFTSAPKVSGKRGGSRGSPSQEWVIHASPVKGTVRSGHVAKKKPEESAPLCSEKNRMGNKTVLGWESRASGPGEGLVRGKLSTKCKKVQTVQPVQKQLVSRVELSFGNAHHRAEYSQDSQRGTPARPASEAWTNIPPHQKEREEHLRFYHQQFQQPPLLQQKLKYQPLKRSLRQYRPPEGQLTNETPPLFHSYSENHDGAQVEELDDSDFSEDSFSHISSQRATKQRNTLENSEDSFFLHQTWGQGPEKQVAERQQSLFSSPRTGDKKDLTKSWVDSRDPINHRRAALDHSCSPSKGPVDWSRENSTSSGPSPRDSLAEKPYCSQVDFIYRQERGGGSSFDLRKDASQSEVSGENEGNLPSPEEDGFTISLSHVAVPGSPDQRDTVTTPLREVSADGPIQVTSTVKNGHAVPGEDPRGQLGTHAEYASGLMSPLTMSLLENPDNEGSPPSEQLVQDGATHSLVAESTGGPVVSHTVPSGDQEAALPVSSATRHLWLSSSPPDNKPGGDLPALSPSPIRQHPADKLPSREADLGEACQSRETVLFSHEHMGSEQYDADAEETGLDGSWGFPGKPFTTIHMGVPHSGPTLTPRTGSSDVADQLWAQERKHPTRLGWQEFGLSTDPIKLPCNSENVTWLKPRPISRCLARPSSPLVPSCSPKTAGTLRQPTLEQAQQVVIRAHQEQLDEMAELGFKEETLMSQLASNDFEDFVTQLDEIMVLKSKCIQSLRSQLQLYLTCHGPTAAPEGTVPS

With MPP9 (401-800 aa) (domain or fragment) the binding [1] was “binds”.

With MPP9 (451-500 aa) (domain or fragment) the binding [1] was “binds”.

In the case of MPP9 (801–1031 aa) (domain or fragment), the binding [2] was “binds”.
